Laboratory results: patent publication US6897197
These are yes or no findings as the source states them, for the method shown. Some binding calls cover weakened binding; strength is not graded here.

Amino acid sequences for entries named in this document (tags omitted). Residues count along the entry.
UniProt P23804, residues 50-489: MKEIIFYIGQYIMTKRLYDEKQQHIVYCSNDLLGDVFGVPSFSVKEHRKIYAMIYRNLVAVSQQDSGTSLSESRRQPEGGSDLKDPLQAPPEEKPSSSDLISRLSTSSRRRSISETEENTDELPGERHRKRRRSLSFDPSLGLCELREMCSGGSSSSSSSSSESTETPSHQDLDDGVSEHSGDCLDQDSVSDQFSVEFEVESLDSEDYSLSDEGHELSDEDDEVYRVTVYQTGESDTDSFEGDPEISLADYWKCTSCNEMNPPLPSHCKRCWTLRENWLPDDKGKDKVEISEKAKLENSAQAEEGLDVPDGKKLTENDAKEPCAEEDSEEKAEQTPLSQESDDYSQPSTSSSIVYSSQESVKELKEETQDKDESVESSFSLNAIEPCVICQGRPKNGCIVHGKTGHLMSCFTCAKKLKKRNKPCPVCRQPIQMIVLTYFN

Legend:
[1] = target: p76/p74 species of MDM2 of 3T3DM cells, lacking the N-terminal p53 binding domain (UniProt P23804); test: anti-p19^ARF immunoprecipitation, anti-MDM2 Western blot, untransfected 3T3DM cells
[2] = target: p76/p74 species of MDM2 of 3T3DM cells, lacking the N-terminal p53 binding domain (UniProt P23804); test: anti-p19^ARF immunoprecipitation, anti-MDM2 (2A10) Western blot, untransfected 3T3DM cells

B1: endogenous p19^ARF of untransfected 3T3DM cells (protein, UniProt Q64364 1-169, looked up)
chain: MGRRFLVTVRIQRAGRPLQERVFLVKFVRSRRPRTASCALAFVNMLLRLERILRRGPHRNPGPGDDDGQRSRSSSSAQLRCRFELRGPHYLLPPGARRSAGRLPGHAGGAARVRGSAGCARCLGSPAARLGPRAGTSRHRAIFAFRWVLFVFRWVVFVYRWERRPDRRA
[1]
  binding: binds
[2]
  binding: binds
